1 substance from patent US7229773 can be followed below.

Amino acid sequences for entries named in this document (tags omitted). A change or cut given only in a name is not applied to a line headed by its entry. Residues count along the entry.
UniProt Q9Z2L0, residues 2-283: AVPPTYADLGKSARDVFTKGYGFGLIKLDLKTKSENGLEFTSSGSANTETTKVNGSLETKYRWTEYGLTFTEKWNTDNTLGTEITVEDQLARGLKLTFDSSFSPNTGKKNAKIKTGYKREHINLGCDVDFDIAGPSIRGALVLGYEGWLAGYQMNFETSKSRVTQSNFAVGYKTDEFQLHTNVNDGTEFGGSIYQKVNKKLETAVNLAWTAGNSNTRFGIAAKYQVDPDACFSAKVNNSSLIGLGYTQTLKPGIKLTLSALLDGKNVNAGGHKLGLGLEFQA
UniProt Q07817: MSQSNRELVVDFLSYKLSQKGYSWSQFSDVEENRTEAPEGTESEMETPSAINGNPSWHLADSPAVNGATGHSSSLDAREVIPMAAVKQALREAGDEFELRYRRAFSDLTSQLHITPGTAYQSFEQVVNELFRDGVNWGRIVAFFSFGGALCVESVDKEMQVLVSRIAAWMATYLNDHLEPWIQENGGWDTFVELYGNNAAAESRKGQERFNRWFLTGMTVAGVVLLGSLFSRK

The target in assay [1] is rat liver VDAC (voltage-dependent anion channel, mitochondrial porin) purified from rat liver mitochondria (rat) (UniProt Q9Z2L0). Briefly: GST pull-down of purified proteins on GSH-sepharose, Western blot. In general terms: A western blot detects proteins with antibodies after separation by electrophoresis.
Assay [2] has the same target. Briefly: GST pull-down of purified proteins on GSH-sepharose, Western blot (recap).

These are yes or no findings as the source states them, for the method shown. Binding seen in cells or lysates may run through a third protein. Some binding calls cover weakened binding; strength is not graded here.

Take “GST-Bcl-xL fusion protein (from UniProt Q07817 1-233)”: the binding entry in assay [1] and in assay [2] was “binds” each time.
